Values quoted from earlier work in patent publication US20060025476A1, “Use of methyl pyruvate for the purpose of reducing weight gain in mammals” (priority 2004, published 2006).
For at least one compound, name, drawing or mass did not settle the structure.

Tested on: MIN6 cells, isolated rat islets
Conditions: PDH activity increased

For `O=C(O)C(Cl)Cl` [dichloroacetate], the “effect on glucose-induced mitochondrial pyridine nucleotide levels, cytosolic ATP and insulin secretion” value is given as “without effect”.
